# Source: PubChem BioAssay AID504327 (National Center for Advancing Translational Sciences (NCATS), 2011)
# Chains of the proteins cited; added tags and fusions are not shown.
# UniProt Q92830, whole entry, looked up: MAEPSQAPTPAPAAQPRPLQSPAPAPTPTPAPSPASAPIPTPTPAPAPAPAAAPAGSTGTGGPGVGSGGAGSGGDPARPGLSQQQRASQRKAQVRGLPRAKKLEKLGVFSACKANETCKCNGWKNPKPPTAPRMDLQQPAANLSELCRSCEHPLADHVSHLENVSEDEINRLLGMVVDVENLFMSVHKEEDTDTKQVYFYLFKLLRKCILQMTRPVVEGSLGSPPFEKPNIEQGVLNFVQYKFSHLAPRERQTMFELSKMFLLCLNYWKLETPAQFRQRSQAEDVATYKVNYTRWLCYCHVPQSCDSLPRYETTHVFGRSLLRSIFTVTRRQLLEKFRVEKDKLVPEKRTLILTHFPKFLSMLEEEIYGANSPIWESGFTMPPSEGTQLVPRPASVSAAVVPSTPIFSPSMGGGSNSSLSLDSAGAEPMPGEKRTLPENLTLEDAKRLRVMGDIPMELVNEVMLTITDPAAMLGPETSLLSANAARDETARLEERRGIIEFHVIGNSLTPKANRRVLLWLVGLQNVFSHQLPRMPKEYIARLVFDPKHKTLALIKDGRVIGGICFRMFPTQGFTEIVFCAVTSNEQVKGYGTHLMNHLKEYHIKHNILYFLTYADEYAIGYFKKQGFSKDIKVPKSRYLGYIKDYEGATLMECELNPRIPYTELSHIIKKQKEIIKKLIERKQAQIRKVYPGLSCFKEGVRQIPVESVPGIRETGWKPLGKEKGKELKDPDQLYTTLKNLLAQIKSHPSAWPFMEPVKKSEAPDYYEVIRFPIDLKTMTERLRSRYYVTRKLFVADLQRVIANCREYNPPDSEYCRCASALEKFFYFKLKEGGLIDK
# The whole screen tested about 390,000 compounds, of which about 820 (0.21%) were called active. The shares of active, inactive and inconclusive entries below differ from those in the screen. Calls follow the shape of the dose curve; as a rule, active = well fitted inhibition curve with a large enough effect; inconclusive = small, poorly fitted or top-dose-only effect, or another doubt; inactive = no such curve, though single readings can be large or run the other way. Potencies of inconclusive entries are doubtful fits and often do not repeat.
# Target: Histone acetyltransferase KAT2A (Homo sapiens) (UniProt Q92830)
# Assay: qHTS Assay for Inhibitors of GCN5L2
# Details: GCN5L2 HAT assay, ThioGlo1 CoA-SH fluorescence; activity change, negative = inhibition: at 58.9 µM (top of the series) unless noted
# Summary of the method: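 Enzyme at 20nM final was mixed with library compounds for 15 min at room temperature. Peptide H3(1-25) at 75uM, acetyl-CoA at 70uM and ThioGlo1 at 50uM were then added. Plates were read immediately and after 20 min (Ex340nm/Em540nm).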
# % is scaled to controls: 0 for no effect and ±100 for the full control effect; potency is read from the fitted curve at half-maximal effect.
Compound,Potency,"activity change, negative = inhibition"
CCOC(=O)C1(S(=O)(=O)c2ccc(Cl)cc2)CCN(Cc2ccccc2)CC1,"inconclusive: 0.891 µM [inhibitor, single point]",–
CCCCC[C@H](CC(=O)NO)C(=O)N[C@H](C(=O)N1CCC[C@H]1CO)C(C)C,"inconclusive: 39.8 µM [inhibitor, single point]",–
Nc1c(-c2nc(-c3ccccc3Cl)no2)nnn1-c1ccccc1F,–,inactive: -13.6%
O=C(CSc1nnnn1-c1ccc2c(c1)CCC2)NCc1cccs1,"inconclusive: 35.5 µM [inhibitor, single point]",–
Cc1ccc2sc(NC(=O)c3cccc(N4C(=O)CCC4=O)c3)nc2c1C,"inconclusive: 0.1 µM [inhibitor, full curve, poor fit]",–
Cc1nc(N=Nc2ccc(S(=O)(=O)O)cc2S(=O)(=O)O)c(COP(=O)(O)O)c(C=O)c1O,"inconclusive: 35.5 µM [inhibitor, single point]",–
COc1cc(/C=C2/C(=N)N3C(=NC2=O)SN=C3S(=O)(=O)C(C)C)ccc1OS(=O)(=O)c1ccccc1,"inconclusive: 39.8 µM [inhibitor, single point]",–
Oc1c(Cl)cc(Cl)cc1Sc1cc(Cl)cc(Cl)c1O,"inconclusive: 25.1 µM [inhibitor, single point]",–
O=C(NN1C(=O)/C(=C/c2ccc(O)c([N+](=O)[O-])c2)SC1=S)c1ccccc1Cl,–,inactive: -11.8%
CSCCC(NS(=O)(=O)c1ccc2c(c1)Cc1cc(S(=O)(=O)NC(CCSC)C(=O)O)ccc1-2)C(=O)O (stereo not given),"inconclusive: 28.2 µM [inhibitor, single point]",–
O=C(Oc1ccc(Br)cc1C(=S)N1CCOCC1)c1ccc([N+](=O)[O-])cc1[N+](=O)[O-],–,inactive: -6.36%
CCCCOC(=O)c1ccc(NC(=O)c2ccccc2OC)cc1,–,inactive: -11.3%
CC(=O)Nc1sc2c(c1C(N)=O)CCCC2,"inconclusive: 14.1 µM [inhibitor, partial curve]",–
Cc1ccc(S(=O)(=O)NCC(=O)N(CC(=O)NCc2ccco2)Cc2cccs2)cc1,"inconclusive: 35.5 µM [inhibitor, single point]",–
Cc1ccc2c(c1)N(CC(=O)NCCCN1C(C)CCCC1C)C(=O)c1cccnc1O2 (stereo not given),"inconclusive: 39.8 µM [inhibitor, single point]",–
O=C(N/N=C\c1ccc(O)c([N+](=O)[O-])c1)C1COc2ccccc2O1 (stereo not given),"inconclusive: 35.5 µM [inhibitor, single point]",–
Cc1ccc(NC(=O)CNc2ccccc2N2CCCC2=O)cc1S(=O)(=O)N1CCCCC1,–,inactive: -3.43%
Cc1nnc(NC(=O)CSCc2cc(=O)c3ccc(C)c(C)c3[nH]2)s1,–,inactive: -0.566%
Nc1ccccc1-c1n[nH]c(=S)s1,"inconclusive: 39.8 µM [inhibitor, single point]",–
O=C(CN1C(=O)COc2ccccc21)N(Cc1cccnc1)Cc1cccc(F)c1,"inconclusive: 35.5 µM [inhibitor, single point]",–
Cc1cc(C)cc(-n2ccnc2SCC(=O)Nc2ccc(C)c(Cl)c2)c1,–,inactive: -18.1%
CCOc1ccccc1NC(=O)c1nnn(CC(=O)Nc2ccccc2CC)c1N,–,inactive: 0.714%

Compound,Potency,"activity change, negative = inhibition"
Cc1cccc(N2CCN(C(=O)c3ccc(CNc4c(N5CCC(C)CC5)c(=O)c4=O)cc3)CC2C)c1 (stereo not given),–,inactive: -4.42%
Cc1cc(C)nc(SCc2cc(=O)c(OC(=O)c3ccc(S(=O)(=O)N(C)C)cc3)co2)n1,"inconclusive: 0.355 µM [inhibitor, partial curve, poor fit]",–
COc1ccc(-c2cc(C(=O)N/N=C/c3ccc4c(c3)OCO4)c3ccccc3n2)c(OC)c1,–,inactive: -12.3%
COc1ccc(CCNC(=O)/C=C/c2ccco2)cc1,"inconclusive: 14.1 µM [inhibitor, partial curve]",–
Cc1cc(C)c2cc(C(=O)Nc3ccccc3)[nH]c2c1,"inconclusive: 5.01 µM [inhibitor, single point]",–
C[C@@H]1O[C@@H](OC2O[C@@H](COc3cc(O)c4c(=O)cc(-c5ccc(O)cc5)oc4c3)[C@@H](O)[C@@H](O)[C@@H]2O)[C@H](O)[C@H](O)[C@H]1O (stereo not given in full),"inconclusive: 39.8 µM [inhibitor, single point]",–
Nc1ncnc2c1ncn2[C@@H]1O[C@H](CNCc2ccccc2OCC(=O)N2CCCCC2)[C@@H](O)[C@H]1O,–,inactive: 3.05%
Cn1c(COc2ccccc2)nc2ccccc21,"inconclusive: 31.6 µM [inhibitor, single point]",–
Cc1ccc(C(=O)N/C(=C/c2cccnc2)C(=O)N2CCCCCC2)cc1,"inconclusive: 2.82 µM [inhibitor, full curve]",–
CCCCC1=CC2=CC(=O)C(C)(OC(=O)CC)C(=O)C2=CN1C1CCCCC1 (stereo not given),–,inactive: -0.206%
COc1ccc(/C=N/NC(=O)c2ccc(O)cc2O)cc1CSc1ccccn1,–,inactive: -14.1%
CCOC(=O)c1c(C)[nH]c(-c2csc(N)n2)c1C,"inconclusive: 39.8 µM [inhibitor, single point]",–
CCN1CCN(Cc2coc3ccc(C)cc3c2=O)CC1,"inconclusive: 3.16 µM [inhibitor, partial curve]",–
COCCN(C(=O)COC(=O)CCc1nc2ccccc2s1)c1c(N)n(Cc2ccccc2)c(=O)[nH]c1=O,"inconclusive: 0.282 µM [inhibitor, full curve, poor fit]",–
C[C@H]1c2cccc(O)c2C(O)=C2C(=O)[C@]3(O)C(O)=C(C(N)=O)C(=O)[C@@H](N(C)C)[C@@H]3[C@@H](O)[C@@H]21,"inconclusive: 39.8 µM [inhibitor, single point]",–
C/C(=N\NC(=O)c1ccc(Cn2cc(Br)cn2)o1)c1ccc(NC(=O)c2ccoc2C)cc1,"inconclusive: 5.01 µM [inhibitor, partial curve, poor fit]",–
CC(C)=CCCC1(C)C=Cc2c(c(C)cc3c2[nH]c2cc(O)ccc23)O1 (stereo not given),"inconclusive: 39.8 µM [inhibitor, single point]",–
CC1(C)CC(=O)c2sc(NS(=O)(=O)c3cc(Cl)ccc3Cl)nc2C1,–,inactive: -3.32%
CC1=CC(C)(C)N(C(=O)CSc2ncn[nH]2)c2ccccc21,–,inconclusive: -108% [inhibitor] [at 0.501 µM]
CCOC(=O)c1c(C)oc2nc(C)nc(NCCc3ccc(SC)cc3)c12,–,inactive: -3.59%
O=c1[nH]c2cc(Cl)ccc2c(O)c1-c1ccc(Oc2ccccc2)cc1,"inconclusive: 14.1 µM [inhibitor, partial curve]",–
CCOc1ccc(CNC(=O)C2CCN(S(=O)(=O)CC)CC2)cc1OC,"inconclusive: 4.47 µM [inhibitor, single point]",–

Compound,Potency,"activity change, negative = inhibition"
COc1cc(CC(=O)O)ccc1O,inactive,–
O=C(NCc1ccccc1Cl)C1CCN(S(=O)(=O)c2ccc(F)cc2)CC1,"inconclusive: 5.01 µM [inhibitor, single point]",–
COCC(=O)Nc1ccc(OC)c(Cl)c1,–,inactive: -4.37%
Cc1ccccc1C(=O)N1CCc2cc(-c3nc(NC(=O)Cc4ccc5c(c4)OCO5)sc3C)ccc21,–,inactive: 5.53%
COc1cc(NC(=O)COC(=O)c2cnccn2)c(C)cc1[N+](=O)[O-],"inconclusive: 0.708 µM [inhibitor, full curve, poor fit]",–
O=C(CSc1cn(CCNC(=O)c2ccc3ccccc3c2)c2ccccc12)NCc1ccco1,"inconclusive: 0.126 µM [inhibitor, full curve, poor fit]",–
COc1ccc(CNC(=O)CSc2ccc(Br)cc2)cc1OC,"inconclusive: 8.91 µM [inhibitor, single point]",–
COc1ccc2c(c1)[nH]c1c(N3CCSCC3)ncnc12,–,inactive: -15.1%
CC(=O)Nc1ccc(S(=O)(=O)Nc2ccn(Cc3ccccc3Cl)n2)cc1,"inconclusive: 8.91 µM [inhibitor, partial curve, poor fit]",–
CN(C)c1ncc2nc(-c3cccs3)c(=O)n(CCc3ccccc3)c2n1,"inconclusive: 0.794 µM [inhibitor, single point]",–
CCOC(=O)c1ccc(NC(=O)Nn2cnnc2)cc1,"inconclusive: 0.1 µM [inhibitor, full curve, poor fit]",–
C/C(=N\NS(=O)(=O)c1ccc(C(C)(C)C)cc1)c1ccccc1,–,inactive: -26.9%
CC(=O)c1ccc(S(=O)(=O)N2CCC(c3nc4ccccc4[nH]3)CC2)cc1,–,inactive: 2.51%
O=C(Nc1cc([N+](=O)[O-])ccc1F)c1ccc2ccccc2c1,"inconclusive: 39.8 µM [inhibitor, single point]",–
CC(C)(C)n1nnnc1C(c1cccnc1)N1CCN(c2ccccc2)CC1 (stereo not given),"inconclusive: 39.8 µM [inhibitor, single point]",–
CC(O)c1nc2c(c(=O)n(C)c(=O)n2C)n1C (stereo not given),"inconclusive: 7.08 µM [inhibitor, single point]",–
COCCn1c(=O)c(-c2ccc(Cl)cc2)nc2cnc(Oc3ccccc3)nc21,"inconclusive: 11.2 µM [inhibitor, partial curve]",–
COc1cccc(-c2ccc(NC(=O)C3CCCN(Cc4nccn4C)C3)cc2)c1 (stereo not given),"inconclusive: 39.8 µM [inhibitor, single point]",–
Cc1cccc(C2=NN(c3ccccc3)[C@@H](C(=O)N3CCOC3=O)[C@@H]2c2ccccc2)c1,"inconclusive: 28.2 µM [inhibitor, single point]",–
Cc1ccc(NS(=O)(=O)c2ccc(NC(=O)CSc3ccc(Cl)cc3)cc2)c(C)c1,"inconclusive: 0.501 µM [inhibitor, partial curve, poor fit]",–
COCCN(CCOC)Cc1c(O)ccc2c3c(c(=O)oc12)CCC3,"inconclusive: 31.6 µM [inhibitor, single point]",–
